Reference: PubChem BioAssay AID504808 (Drosophila RNAi Screening Center, 2011)

- Screen: 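Genes whose loss lifts activity of an E2F-responsive reporter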 (primary screen)
- System: Drosophila S2 cells
- Knock-down reagent: long dsRNA against Drosophila genes
- Detection: 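Firefly luciferase driven by E2F sites, normalised to Renilla luciferase on the same minimal promoter, measured by plate reader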
- Reading the numbers: E2F firefly: higher = more E2F reporter activity; Renilla normaliser: higher = more normaliser reporter signal
- Hit rule: 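a knock-down counted as active when the firefly/Renilla E2F signal rose above 50%, a threshold chosen arbitrarily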
The deposit covers about 21,000 reagents; below is a random part of those with a known target gene and a result. Over the whole deposit, 18 (0.084%) are marked active. 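Raw counts without plate normalisation, one of two replicates; the ratio scores behind the calls were not deposited.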 The numbers tell different reagents against one gene apart. Names joined by + are all predicted targets of the reagent. Not stated in the record: the amount of reagent, the time to read-out.

Gene	dsRNA no.	E2F firefly, rep 1	Renilla normaliser, rep 1	Call
Klp67A + CG34456	1	1.16e5	5000	inactive
CG13594	1	1.12e5	4328	inactive
tkv + CR14033 + tRNA:Asp-GTC-2-1 + 1 more	1	1.35e5	5095	inactive
CG10081	1	1.46e5	5193	inactive
CG4830	1	1.45e5	6905	inactive
CG9877	1	99533	4144	inactive
CG10431	1	98001	4233	inactive
CG3760	1	53768	3097	inactive
Pez	1	1.55e5	5669	inactive
al	1	1.65e5	5381	inactive
SkpF + CG5357 (retired record)	1	1.04e5	4837	inactive
CG12517	1	1.33e5	4150	inactive
Tif-IA	1	66889	3747	inactive
Tif-IA	2	89419	4198	inactive
GatA	1	72081	3207	inactive
CG30015	1	1.28e5	5067	inactive
CG30015	2	2355	179	inactive
CG30015	3	1.46e5	4494	inactive
SppL	1	1.13e5	5748	inactive
Cubn2	1	1.41e5	7587	inactive

Part of the list above in another layout:
{"Gene":"GatA","dsRNA no.":1,"E2F firefly, rep 1":72081,"Renilla normaliser, rep 1":3207,"Call":"inactive"}
{"Gene":"CG30015","dsRNA no.":1,"E2F firefly, rep 1":1.28e5,"Renilla normaliser, rep 1":5067,"Call":"inactive"}
{"Gene":"CG30015","dsRNA no.":2,"E2F firefly, rep 1":2355,"Renilla normaliser, rep 1":179,"Call":"inactive"}
{"Gene":"CG30015","dsRNA no.":3,"E2F firefly, rep 1":1.46e5,"Renilla normaliser, rep 1":4494,"Call":"inactive"}
{"Gene":"SppL","dsRNA no.":1,"E2F firefly, rep 1":1.13e5,"Renilla normaliser, rep 1":5748,"Call":"inactive"}

Continued:
Gene	dsRNA no.	E2F firefly, rep 1	Renilla normaliser, rep 1	Call
CG17249	1	71330	3525	inactive
lbm	1	1.47e5	5122	inactive
ATP6AP2	1	1.25e5	5597	inactive
CG6602	1	1.10e5	4367	inactive
nht	1	1.04e5	4257	inactive
TTLL12	1	1.44e5	4856	inactive
zetaTry	1	90979	4401	inactive
CG13623	1	1.11e5	5788	inactive
Gyc32E	1	1.26e5	6829	inactive
Actbeta	1	65217	2393	inactive
Actbeta	2	52995	4571	inactive
Tdrd3	1	1.62e5	8206	inactive
Bgb	1	65166	3554	inactive
Scm	1	1.62e5	6007	inactive
CG30192	1	1.29e5	4829	inactive
fwd	1	73950	3692	inactive
NANS	1	1.64e5	6465	inactive
CNT2	1	3508	55	inactive
CG3919	1	82240	3446	inactive
CG1737	1	46006	3129	inactive
CG13901	1	92313	3699	inactive
Gr47b	1	1.24e5	5078	inactive
CG14104	1	1.21e5	6225	inactive
alien + CG17906	1	1.67e5	5213	inactive
CG10839	1	1.23e5	4433	inactive
Ir76b	1	1.22e5	6801	inactive
CG31459	1	81072	2870	inactive
Mal-B2	1	51789	3643	inactive
CG15080	1	1.34e5	4474	inactive
Tsp42Ed	1	1.39e5	4605	inactive
CG6660	1	64561	2735	inactive
uno	1	1.68e5	5054	inactive
CG6023	1	1.74e5	5879	inactive
Abp1	1	1.19e5	5606	inactive
Gapvd1	1	1.09e5	5793	inactive
Tbcb	1	72403	3275	inactive
Gal	1	1.35e5	4722	inactive
